Condensed nuclei and growth inhibition data for 3 compounds are collected here from PubChem BioAssay AID771 (SRMLSC, 2007).

The list shows a part of the results.

This assay is described as follows: HT29 colon tumor cell growth inhibition, primary screen, imaging, high content imaging, 48 h, CellTiter-Glo (AID 771).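 For Condensed nuclei: condensed means Hoechst nuclear area under control median minus 1.5 SD.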 Conditions: HCS imaging cell count, at 10 µM, stronger effect = higher value; condensed nuclei: measured here: percent cells with condensed nuclei; growth inhibition: measured here: ATP CellTiter-Glo viability inhibition.
Regarding `CCN(CC)CC(O)COC(=O)C(O)(c1ccccc1)C1CCCCC1` (stereo unspecified), the condensed nuclei is 4.82% and the growth inhibition is 49.3%.

With `Cc1ccc(OCC(=O)OC2CN3CCC2CC3)cc1` (stereo unspecified), the condensed nuclei came out at 1.92% and the growth inhibition is -8.18%.

`Cc1cccc(OCC(=O)OC2CN3CCC2CC3)c1` (stereo unspecified): the condensed nuclei came out at 0.84% and the growth inhibition was -5.98%.
